{"source": "PubChem BioAssay AID662", "about": "(National Center for Advancing Translational Sciences (NCATS), 2007)", "note": "The list shows a part of the results. Shown are side measurements of this screen, not its main read-out; they come without a call. Compounds called inactive in the main read-out are mostly missing here. Potencies come from curve fits of mixed quality, noted in brackets."}
{"experiment": "Cell signaling CRE-BLA (Fsk stim)", "details": "CHO CRE-bla reporter (cAMP response element driving beta-lactamase), forskolin EC10, beta-lactamase ratio; measured here: 460 nm blue channel", "procedure,_shortened": "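Cells were plated overnight at 37 °C, exposed to compound titrations plus EC10 NKH 477 for 3 h, then given CCF4 dye for 2 h at room temperature. Blue/green (460/530 nm) ratio was converted to %Activity and AC50 values calculated.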"}
{"smiles": "COc1cc(OC)cc(C(=O)OCn2nnc3ccccc3c2=O)c1", "AC50": "10 µM [rising, partial curve]"}
{"smiles": "COc1cccc(-c2ccc3ncnc(NCc4ccc(OC)cc4OC)c3c2)c1", "AC50": "3.98 µM [rising, full curve]"}
{"smiles": "O=C(CCCc1ccccc1)NC1CCSC1=O", "note": "(centres undefined)", "AC50": "0.794 µM [rising, single point]"}
{"smiles": "O=C(Nc1ccc(N2CCCC2)cc1)c1ccc(Br)o1", "AC50": "3.98 µM [falling, partial curve]"}
{"smiles": "Cc1cnc(CNc2ncnc3ccc(-c4ccccc4C(F)(F)F)cc23)cn1", "AC50": "10 µM [rising, partial curve]"}
{"smiles": "O=C(Nn1c(=O)[nH]c2ccsc2c1=O)c1ccccc1", "AC50": "0.0501 µM [rising, full curve]"}
{"smiles": "COc1ccc(-c2nnc3c4ccccc4c(C)nn23)cc1S(=O)(=O)N1CCN(CCO)CC1", "AC50": "10 µM [rising, partial curve]"}
{"smiles": "Cc1nc2cnc(OCc3ccccc3)nc2n(CCc2ccccc2)c1=O", "AC50": "10 µM [rising, partial curve]"}
{"smiles": "CC(C)(Oc1ccc(Cl)cc1)C(=O)O", "AC50": "10 µM [falling, full curve, poor fit]"}
{"smiles": "CCOC(=O)C(Sc1nnc2c3ccccc3n(CC)c2n1)C(=O)OCC", "AC50": "3.16 µM [rising, full curve]"}
{"smiles": "CCC(C)c1ccc2oc(-c3ccc(NC(=O)c4ncn[nH]4)cc3)nc2c1", "note": "(centres undefined)", "AC50": "2.51 µM [falling, full curve]"}
{"smiles": "CN1CCc2ccccc2C1C1CCNCC1", "note": "(centres undefined)", "AC50": "3.16 µM [falling, single point]"}
{"smiles": "COC(=O)c1ccc(NCC(=O)c2ccccc2)cc1", "AC50": "0.398 µM [falling, full curve]"}
{"smiles": "CCC(C)n1[nH]c(=O)c2c(C)cc(C)nc21", "note": "(centres undefined)", "AC50": "12.6 µM [rising, partial curve]"}
{"smiles": "CC(CN1CCOCC1)C(=O)O", "note": "(centres undefined)", "AC50": "10 µM [falling, partial curve]"}
{"smiles": "CCOC(=O)CSc1nc2c(c(=O)[nH]c(=O)n2C)n1CCCc1ccccc1", "AC50": "2.51 µM [rising, single point]"}
{"smiles": "CCn1c(SCC(=O)Nc2ccccc2C(=O)OC)nnc1-c1ccoc1C", "AC50": "15.8 µM [rising, single point]"}
{"smiles": "COC(=O)[C@H](C)NC(=O)NC1CCCc2ccccc21", "note": "(some centres undefined)", "AC50": "0.0794 µM [falling, full curve]"}
{"smiles": "O=C(CSc1nc2ccccc2c(=O)[nH]1)c1cccs1", "AC50": "12.6 µM [rising, partial curve]"}
{"smiles": "COc1ccc(Cl)cc1NC(=O)CCn1cnc2ccccc2c1=O", "AC50": "15.8 µM [rising, partial curve, poor fit]"}
{"smiles": "COc1ccc(-n2c(=O)c(-c3ccc(F)cc3)nc3cnc(N4CCNCC4)nc32)cc1", "AC50": "6.31 µM [rising, partial curve]"}
{"smiles": "CN(C)c1ncc2nc(-c3ccccc3)c(=O)n(Cc3cccs3)c2n1", "AC50": "3.16 µM [rising, full curve]"}
{"smiles": "CC(C)CCNC(=O)CCn1nc(-c2ccccc2)ccc1=O", "AC50": "25.1 µM [rising, single point]"}
{"smiles": "COC(=O)c1ccc(Nc2cc(C)nc3nc(C)nn23)cc1", "AC50": "7.94 µM [rising, partial curve]"}
{"smiles": "CCOC(=O)CCCNC(=O)COc1ccccc1C#N", "AC50": "5.01 µM [falling, single point]"}
{"smiles": "C=C1C(C(=O)N2CCN(C)CC2)C1C(=O)N1CCN(C)CC1", "note": "(centres undefined)", "AC50": "0.398 µM [falling, partial curve]"}
{"smiles": "CC1CCCCN1c1nc(-c2ccncc2)nc2ccccc12", "note": "(centres undefined)", "AC50": "15.8 µM [rising, partial curve]"}
{"smiles": "COc1ccc(CCn2c(N)c(C#N)c3nc4ccccc4nc32)cc1OC", "AC50": "12.6 µM [rising, partial curve]"}
{"smiles": "CC(=O)Nc1ccc(NC(=O)Cn2cc3c(n2)CCC(C)C3)cc1", "note": "(centres undefined)", "AC50": "25.1 µM [rising, single point]"}
{"smiles": "CCOC(=O)C1=C(CN2CCC(C)CC2)NC(=O)NC1c1ccc(Cl)cc1", "note": "(centres undefined)", "AC50": "10 µM [rising, partial curve]"}
{"smiles": "CCCC(=O)Nc1sc(C(=O)OC)c(C)c1C(N)=O", "AC50": "10 µM [rising, partial curve]"}
{"smiles": "CCOC(=O)c1ccc(NC(=O)N2CCN(CCc3ccccc3)CC2)cc1", "AC50": "12.6 µM [falling, partial curve, poor fit]"}
{"smiles": "Cc1cc(C)nc(SCC(=O)Nc2ncc3c(n2)CCCC3=O)n1", "AC50": "12.6 µM [rising, single point]"}
{"smiles": "COc1ccc(Oc2ncc3nc(-c4ccc(F)cc4)c(=O)n(C[C@H]4CCCO4)c3n2)cc1", "AC50": "12.6 µM [rising, single point]"}
{"smiles": "CCN(CC(=O)Nc1c(C(=O)OC)[nH]c2ccc(Cl)cc12)c1ccc2c(c1)OCO2", "AC50": "15.8 µM [falling, single point]"}
{"smiles": "CCn1c(=N)n(CC(=O)c2cccc(OC)c2)c2ccccc21", "AC50": "10 µM [rising, partial curve]"}
{"smiles": "CCCOC(=O)C1=C(C)NC2=C(C(=O)CCC2)C1c1cccc(OC)c1OC", "note": "(centres undefined)", "AC50": "10 µM [rising, partial curve]"}
{"smiles": "COc1ccc(N2CCCn3c2nc2c3c(=O)n(Cc3ccccc3F)c(=O)n2C)c(OC)c1", "AC50": "15.8 µM [falling, single point]"}
{"smiles": "CCN(C(=O)COc1cc(=O)n(CC)c2ccccc12)c1cccc(Cl)c1", "AC50": "7.94 µM [rising, partial curve]"}
{"smiles": "CCn1nc(NC(=O)c2ccccn2)c2cc3cccc(C)c3nc21", "AC50": "1.58 µM [rising, partial curve]"}
{"smiles": "COc1ccc(-c2ccc(=N)n(CCCC(=O)O)n2)cc1", "AC50": "20 µM [falling, single point]"}
{"smiles": "O=S1(=O)C=C(SCCN2CCCCC2)c2ccccc21", "AC50": "0.00398 µM [falling, full curve, poor fit]"}
{"smiles": "CCOCCCn1c(=N)c(C(=O)NCc2ccc3c(c2)OCO3)cc2c(=O)n3ccccc3nc21", "AC50": "0.251 µM [rising, partial curve]"}
{"smiles": "CN(C)c1nc(OCCOC(=O)c2ccccc2)nc(N(C)C)n1", "AC50": "5.01 µM [rising, partial curve]"}
{"smiles": "CCOC(=O)c1c(C)[nH]c(C(=O)COC(=O)CSCC(=O)N(CC)CC)c1C", "AC50": "10 µM [rising, single point]"}
{"smiles": "CN1CCN(C(=O)c2cc3nc(-c4ccc(F)cc4)cc(C(F)(F)F)n3n2)CC1", "AC50": "12.6 µM [rising, single point]"}
{"smiles": "Cc1ccccc1-c1cc(Nc2ccccc2)ncn1", "AC50": "2.51 µM [rising, full curve]"}
{"smiles": "CCC(C)NC(=O)CCNS(=O)(=O)c1ccc(Br)cc1", "note": "(centres undefined)", "AC50": "3.98 µM [rising, partial curve]"}
{"smiles": "COc1ccccc1-c1cc(NCc2cccnc2)ncn1", "AC50": "10 µM [rising, partial curve]"}
{"smiles": "COc1ccc(C2c3sc(=O)[nH]c3SC3C4CCC(C4)C23)cc1", "note": "(centres undefined)", "AC50": "3.16 µM [rising, partial curve]"}
{"smiles": "Cc1sc2nc(SCC(=O)c3cc(C)n(CC4CCCO4)c3C)n(C(C)C)c(=O)c2c1C", "note": "(centres undefined)", "AC50": "10 µM [rising, partial curve]"}
{"smiles": "N#CCSc1nnc(COc2cccc3ccccc23)n1-c1cccc(Cl)c1", "AC50": "31.6 µM [falling, single point]"}
{"smiles": "COc1ccc(S(=O)(=O)Cc2ccc(C(=O)NCCCN(C)c3ccccc3)o2)cc1", "AC50": "10 µM [rising, partial curve, poor fit]"}
{"smiles": "CCOC(=O)c1cccc(NC(=O)c2cc3sccc3n2C)c1", "AC50": "25.1 µM [falling, single point]"}
{"smiles": "CCCCNC(=O)c1cc2c(=O)n3cccc(C)c3nc2n(CCN2CCOCC2)c1=N", "AC50": "12.6 µM [rising, partial curve]"}
{"smiles": "CN(C)C(=O)c1ccc(-c2nc(NCc3cccs3)c3ccccc3n2)cc1", "AC50": "2 µM [rising, full curve]"}
{"smiles": "CC(C)n1c(SCC(=O)Nc2ccccc2N2CCCCC2)nc2c1c(=O)n(C)c(=O)n2C", "AC50": "1 µM [rising, full curve]"}
{"smiles": "CN(C)C(=O)c1c(-c2ccccc2)oc2ccc(O)cc12", "AC50": "0.0631 µM [falling, single point]"}
{"smiles": "COc1ccc(-c2nc3cnc(N(C)C)nc3n(C3CC3)c2=O)cc1", "AC50": "7.94 µM [rising, partial curve]"}
{"smiles": "CCCOc1ccc(C2/C(=C(/O)c3ccc(F)cc3)C(=O)C(=O)N2CCCN(C)C)cc1", "note": "(centres undefined)", "AC50": "10 µM [falling, partial curve]"}
{"smiles": "Cc1nc(C)c(-c2csc(Nc3cccnc3)n2)s1", "AC50": "7.94 µM [rising, partial curve]"}
{"smiles": "COc1cc2c(cc1OC)CN(CC(=O)NC(=O)NCc1ccco1)CC2", "AC50": "25.1 µM [rising, single point]"}
{"smiles": "COc1cc(-c2nc(Cc3ccccc3Cl)no2)cc(OC)c1OC", "AC50": "7.94 µM [rising, partial curve]"}
{"smiles": "N#Cc1nc(COc2ccc(-c3ccccc3)cc2)oc1NCCCN1CCOCC1", "AC50": "25.1 µM [rising, single point]"}
{"smiles": "COc1cc(-c2nc(S(=O)(=O)c3ccccc3)c(N3CCOCC3)o2)cc(OC)c1OC", "AC50": "2.51 µM [rising, full curve]"}
{"smiles": "Cc1cccc(NC2=NCC(=O)N2Cc2ccccc2)c1", "AC50": "15.8 µM [falling, partial curve]"}
{"smiles": "COc1ccc(-c2cc(C(=O)OC3CCOC3=O)c3ccccc3n2)cc1OC", "note": "(centres undefined)", "AC50": "10 µM [rising, partial curve]"}
{"smiles": "COCCNc1nc(C)nc2c1nc(-c1ccccc1)n2C1CCN(Cc2ccccc2)C1", "note": "(centres undefined)", "AC50": "10 µM [rising, partial curve]"}
{"smiles": "CCOC(=O)N1CCN(c2nc3ccccc3nc2C(C#N)S(=O)(=O)c2ccc(C)cc2)CC1", "note": "(centres undefined)", "AC50": "5.01 µM [rising, partial curve]"}
